Consider 55 molecules from PubChem BioAssay AID1487 (National Center for Advancing Translational Sciences (NCATS), 2009).

A word on the AC50: it is the concentration giving half of the maximal activity seen.

SMILES strings stand for the structures. Several values for one entry are separate records, joined by “and”; a condition that tells them apart may be missing. Equal values may be shown once. This is one part of the list. The main result of the screen is listed elsewhere. These columns were measured beside it and carry no call. Most of these compounds were active or inconclusive in the main read-out, so they are no random draw. Words in brackets tell the shape of the fitted curve; partial curves, single points and poor fits give uncertain potencies.

A short description of the experiment: qHTS Assay for Modulators of Lamin A Splicing. The note with it: HeLa LMNA splicing GFP/RFP minigene ratio, 48 h. Put shortly: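 S3 HeLa cells stably expressing lamin A-EGFP splicing minigene plus DsRed2, 600 cells/well, 48 h compound exposure at 37C. Laser-scanning cytometry; analysed as GFP (500-530 nm)/RFP (575-640 nm) total intensity ratio; 0.5% DMSO vehicle.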
A general note: In qHTS, concentration-response curves come from the screen itself.

The mark [1] stands for this setting: measured here: RFP viability control channel.
[2] abbreviates: measured here: GFP splicing reporter channel.

As for `O=C(COc1ncnc2ccccc12)Nc1ccc(Cl)c([N+](=O)[O-])c1`, the half-maximal activity concentration (AC50) under setting [1] was 11.2 µM [rising, partial curve].
For `CCOC(=O)C1C(=O)C=C(c2ccc(C)cc2)CC1c1cccc([N+](=O)[O-])c1` (configuration not stated), the concentration at half-maximal activity (AC50) under setting [1] is 15.8 µM [rising, partial curve].
Consider `CCOc1ccc(CSC(=N)N)cc1[N+](=O)[O-]`, for which the AC50 under setting [1] is 17.8 µM [rising, single point].
Regarding `Cc1ccsc1CNn1cnnc1SCc1ccc(Cl)cc1`, the AC50 under setting [1] was 17.8 µM [rising, single point].
As for `O=C(/C=C/c1ccc(Br)cc1)NC(=S)NNC(=O)c1ccco1`, the AC50 under setting [1] is 14.1 µM [rising, single point].
Turning to `FC(F)(F)c1cnc(Oc2ccccc2-c2nnc(-c3ccc(Cl)cc3)o2)c(Cl)c1`, the half-maximal activity concentration (AC50) under setting [1] was 12.6 µM [rising, partial curve].
For the molecule `O=C(O)c1cc(O)c2c(c1)[O][Bi][O]2`, the AC50 by setting is: under setting [2], 0.01 µM [rising, full curve, poor fit]; under setting [1], 0.794 µM [rising, full curve].
As for `CC(C)CNS(=O)(=O)c1ccc(S(=O)(=O)N2CCC3(CC2)OCCO3)cc1`, under setting [1], the AC50 is 12.6 µM [rising, single point].
As to `CCN1CCN(C(c2cccc(OC)c2)c2c(O)cc(C)n(Cc3ccco3)c2=O)CC1` (configuration not stated), the concentration at half-maximal activity (AC50) under setting [1] is 35.5 µM [rising, single point].
On to `CC(NC(=O)c1ccc(Cn2c(SCc3ccccc3)nc3cccnc32)cc1)c1ccccc1` (configuration not stated), for which the AC50 under setting [2] is 0.02 µM [rising, full curve, poor fit].
On the same count and under the same terms, the value for `O=C(Nc1ccccc1C(F)(F)F)N1Cc2ccccc2Oc2ncccc21` was 0.2 µM [rising, partial curve, poor fit].
In the case of `Cn1cc(C(=O)c2ccc(Cl)cc2Cl)cc1C=O`, the half-maximal activity concentration (AC50) under setting [2] was 0.0316 µM [falling, full curve, poor fit].
Turning to `Nc1ccn([C@@H]2CC[C@H](CO)O2)c(=O)n1`, the AC50 under setting [1] is 3.16 µM [falling, single point].
For `COc1ccc(-n2cc(-c3ccccc3)nc2SC)cc1`, under setting [1], the half-maximal activity concentration (AC50) was 12.6 µM [rising, single point].
For `CCC1(O)CC2CN(CCc3c([nH]c4ccccc34)[C@@](C(=O)OC)(c3cc4c(cc3OC)N(C)C3[C@]45CCN4CC=C[C@@](CC)([C@@H](OC(C)=O)[C@]3(O)C(=O)OC)[C@H]45)C2)C1` (some centres not stated), the concentration at half-maximal activity (AC50) under setting [2] is 0.178 µM [falling, full curve] and the half-maximal activity concentration (AC50) under setting [1] is 0.178 µM [falling, full curve].
Regarding `O=[N+]([O-])c1ccc(OCc2cnc(Cl)s2)c([N+](=O)[O-])c1`, under setting [1], the half-maximal activity concentration (AC50) was 7.08 µM [falling, full curve, poor fit].
With `FC(F)(F)c1nnc(-c2ccccc2)nc1Oc1ccc(Cl)cc1Cl`, the half-maximal activity concentration (AC50) reads like this: under setting [2], 35.5 µM [falling, single point]; under setting [1], 35.5 µM [falling, single point].
As to `Clc1ccc([C@H](Cn2ccnc2)OCc2csc3c(Cl)cccc23)c(Cl)c1`, the AC50 under setting [1] was 3.98 µM [rising, partial curve, poor fit].
Turning to `CCCCC(C)(O)C/C=C/[C@H]1[C@H](O)CC(=O)[C@@H]1CCCCCCC(=O)OC` (some centres not stated), the half-maximal activity concentration (AC50) under setting [2] was 0.447 µM [falling, full curve, poor fit]; the half-maximal activity concentration (AC50) under setting [1] is 22.4 µM [rising, single point] and 794 nM [rising, partial curve, poor fit].
For `O=c1oc2c(CN3CCCCC3)c(O)ccc2c2c1CCCCC2`, under setting [1], the half-maximal activity concentration (AC50) was 0.355 µM [rising, full curve, poor fit].
Turning to `Cc1cc(C(=O)Nc2ccc(Cl)cc2)c2c(C)nn(-c3ccccc3)c2n1`, the AC50 reads like this: under setting [2], 0.178 µM [falling, full curve, poor fit]; under setting [1], 0.398 µM [falling, full curve, poor fit].
For `O=C(c1ccco1)N1CCN(C(=O)C2CCCc3c2[nH]c2ccc(Cl)cc32)CC1` (configuration not stated), under setting [1], the AC50 was 11.2 µM [rising, partial curve].
As to `c1ccn2c(SCc3ccc4c(c3)OCO4)nnc2c1`, the half-maximal activity concentration (AC50) under setting [2] was 35.5 µM [rising, single point] and the half-maximal activity concentration (AC50) under setting [1] was 22.4 µM [rising, single point].
For `CC(=O)[C@@H]1[C@@H](C(=O)c2ccc(C)cc2)[C@]2(C(=O)Nc3ccccc32)[C@H]2C=Cc3cc(F)ccc3N12`, under setting [1], the concentration at half-maximal activity (AC50) is 25.1 µM [rising, single point].
On the same count and under the same terms, the value for `CCOC(=O)c1cc(-c2ccco2)nc2c1c(C)nn2CCC#N` was 35.5 µM [rising, single point].
Consider `COc1ccc(CCNC(=O)c2[nH]c(C)c(C(C)=O)c2C)cc1`, for which the concentration at half-maximal activity (AC50) under setting [1] was 14.1 µM [rising, partial curve, poor fit].
Turning to `CN1CCN(C(=S)C(=O)Nc2ccc(Br)cc2)CC1`, the concentration at half-maximal activity (AC50) under setting [1] was 1.41 µM [falling, partial curve].
With `COc1ccccc1OCCNC(=O)Nc1cc(F)c(F)cc1Cl`, under setting [1], the AC50 was 35.5 µM [falling, single point].
Same read-out and setting: with `O=C(/C(C=Nc1cccc(C(F)(F)F)c1)=C(/O)c1ccco1)C(F)(F)F` the figure was 22.4 µM [rising, partial curve, poor fit].
For `COc1ccc(-c2nnc(SCC(=O)c3cccs3)n2-c2ccc(Cl)cc2)cc1`, the AC50 under setting [2] is 12.6 µM [rising, single point] and the half-maximal activity concentration (AC50) under setting [1] was 22.4 µM [rising, single point].
For `CCCCCOc1ccc(CSCCNC(=S)Nc2ccccc2)cc1`, under setting [1], the AC50 was 35.5 µM [rising, single point].
With `COc1cc(NC(=O)c2cc(-c3ccco3)on2)c(OC)cc1Cl`, the AC50 reads like this: under setting [2], 35.5 µM [rising, single point]; under setting [1], 35.5 µM [rising, single point].
As to `CCOc1ccc(NC(=O)COc2ccccc2)c([N+](=O)[O-])c1`, the AC50 under setting [2] is 1.26 µM [falling, single point].
On to `Cc1oc(-c2ccc(Cl)cc2)nc1CN1CCCC(C(=O)NCc2cccnc2)C1` (configuration not stated), for which the half-maximal activity concentration (AC50) under setting [1] is 11.2 µM [rising, partial curve].
In the case of `CC1=C(C(=O)Nc2ccccn2)C(c2ccc3c(c2)OCO3)C2=C(CC(C)(C)CC2=O)N1` (configuration not stated), the concentration at half-maximal activity (AC50) under setting [2] is 1.41 µM [rising, partial curve].
With `Cc1ccc(CSc2nc3ccncc3n2CC(=O)Nc2cc(C)cc(C)c2)cc1`, the AC50 under setting [2] was 0.141 µM [falling, full curve, poor fit].
In the case of `Cn1cccc1/C=C1\SC(=S)N(NC(=O)c2cccc(Cl)c2)C1=O`, the half-maximal activity concentration (AC50) was 15.8 µM [rising, single point] under setting [2] and 25.1 µM [rising, single point] under setting [1].
Consider `O=c1[nH]nc(Cc2ccc(-c3cccc(Cl)c3)o2)c2ccccc12`, for which the half-maximal activity concentration (AC50) under setting [1] is 20 µM [rising, single point].
As to `CCOC(=O)c1cn(Cc2cccc(Cl)c2)nn1`, under setting [2], the AC50 is 25.1 µM [rising, partial curve, poor fit].
Consider `Cc1ccc(Cl)cc1N1CCN(C(=O)CN2C(=O)c3cccc4cccc2c34)CC1`, for which the concentration at half-maximal activity (AC50) under setting [1] is 17.8 µM [rising, partial curve, poor fit].
`CCOc1cc(N2CCOCC2)c(OCC)cc1NC(=O)CSc1ncn[nH]1`: the AC50 under setting [2] was 0.708 µM [rising, full curve, poor fit].
On to `CCOc1ccc(OCc2ccc(C(=O)N3N=C(C(F)F)CC3(O)C(F)F)o2)cc1` (configuration not stated), for which, under setting [1], the AC50 is 35.5 µM [rising, single point].
As to `O=C(COCc1cc(-c2ccc3c(c2)OCO3)on1)Nc1cccc(O)c1`, the AC50 under setting [2] was 5.62 µM [rising, full curve].
Take `Cc1cc(C)c(S(=O)(=O)ON2C(=O)c3ccccc3C2=O)cc1C`: the AC50 under setting [2] is 35.5 µM [falling, single point] and the concentration at half-maximal activity (AC50) under setting [1] was 35.5 µM [falling, single point].
`CCOc1ccc2oc(C(=O)NC3CCN(Cc4ccccc4)CC3)c(C)c2c1`: the AC50 runs as follows: under setting [2], 11.2 µM [falling, single point]; under setting [1], 8.91 µM [falling, single point].
For `CCN(CC)C(=O)CN1C(=O)C2(OCC(C)(c3ccccc3)CO2)c2ccccc21` (configuration not stated), the AC50 runs as follows: under setting [2], 12.6 µM [rising, single point]; under setting [1], 15.8 µM [rising, single point].
Take `CCN(CC)S(=O)(=O)c1ccc(OC)c(NC(=O)CSc2cc(C)ccc2C)c1`: the half-maximal activity concentration (AC50) under setting [1] is 22.4 µM [rising, single point].
On the same count and under the same terms, with `Cc1ccc(C)c(N(CC(=O)NC2CCCC2)C(=O)c2oc(C(C)(C)C)cc2C)c1` the figure was 12.6 µM [rising, single point].
`O=C(COC(=O)c1cn(-c2ccccc2)nc1-c1ccccc1)c1ccc([N+](=O)[O-])cc1`: the half-maximal activity concentration (AC50) under setting [2] is 15.8 µM [rising, single point] and the AC50 under setting [1] is 22.4 µM [rising, partial curve, poor fit].
For `Nc1cc(-c2nn[nH]n2)ccc1F`, the AC50 is 12.6 µM [falling, single point] under setting [2] and 17.8 µM [falling, partial curve] under setting [1].
For the molecule `CN1C(=O)CSc2ccc(NC(=O)N3CCN(c4ccccn4)CC3)cc21`, the AC50 under setting [1] is 15.8 µM [rising, single point].
`CCOc1ccc(OC(=O)c2sc3ncn(Cc4cccc(F)c4)c(=O)c3c2C)cc1`: the AC50 is, setting by setting: under setting [2], 0.1 µM [falling, full curve, poor fit]; under setting [1], 0.316 µM [falling, full curve, poor fit].
Consider `Cc1ccc(C(=O)NNC(=O)c2cccc(S(=O)(=O)N3CCN(c4ccccc4)CC3)c2)cc1`, for which the AC50 under setting [2] is 12.6 µM [rising, partial curve] and the half-maximal activity concentration (AC50) under setting [1] is 14.1 µM [rising, partial curve].
On to `COc1cc2oc(=O)c3c(c2cc1OCC(=O)c1c(C)n(C)c2ccccc12)CCCC3`, for which, under setting [2], the AC50 is 0.01 µM [rising, full curve, poor fit].
For `Cc1ccc[n+](CC(=O)/C=C2\N(C)c3ccccc3C2(C)C)c1`, the AC50 was 2.24 µM [rising, full curve] under setting [2] and 3.16 µM [rising, full curve] under setting [1].
